From publication PMC11222446
No constants are given. Whether binding was seen depends on the method and setting. In cells and extracts the contact can be indirect. Some entries that bind do so weakly or less than the wild type. Sequences can lack the tags named with a protein.

T1: His-PCLAF expressed in HEK293T cells (UniProt Q9CQX4)
T1 sequence: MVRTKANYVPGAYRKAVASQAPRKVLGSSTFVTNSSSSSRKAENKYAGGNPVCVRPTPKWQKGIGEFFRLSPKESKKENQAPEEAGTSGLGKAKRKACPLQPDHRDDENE

T2: FLAG-ADGRL2 expressed in HEK293T cells (UniProt Q8JZZ7)
T2 sequence: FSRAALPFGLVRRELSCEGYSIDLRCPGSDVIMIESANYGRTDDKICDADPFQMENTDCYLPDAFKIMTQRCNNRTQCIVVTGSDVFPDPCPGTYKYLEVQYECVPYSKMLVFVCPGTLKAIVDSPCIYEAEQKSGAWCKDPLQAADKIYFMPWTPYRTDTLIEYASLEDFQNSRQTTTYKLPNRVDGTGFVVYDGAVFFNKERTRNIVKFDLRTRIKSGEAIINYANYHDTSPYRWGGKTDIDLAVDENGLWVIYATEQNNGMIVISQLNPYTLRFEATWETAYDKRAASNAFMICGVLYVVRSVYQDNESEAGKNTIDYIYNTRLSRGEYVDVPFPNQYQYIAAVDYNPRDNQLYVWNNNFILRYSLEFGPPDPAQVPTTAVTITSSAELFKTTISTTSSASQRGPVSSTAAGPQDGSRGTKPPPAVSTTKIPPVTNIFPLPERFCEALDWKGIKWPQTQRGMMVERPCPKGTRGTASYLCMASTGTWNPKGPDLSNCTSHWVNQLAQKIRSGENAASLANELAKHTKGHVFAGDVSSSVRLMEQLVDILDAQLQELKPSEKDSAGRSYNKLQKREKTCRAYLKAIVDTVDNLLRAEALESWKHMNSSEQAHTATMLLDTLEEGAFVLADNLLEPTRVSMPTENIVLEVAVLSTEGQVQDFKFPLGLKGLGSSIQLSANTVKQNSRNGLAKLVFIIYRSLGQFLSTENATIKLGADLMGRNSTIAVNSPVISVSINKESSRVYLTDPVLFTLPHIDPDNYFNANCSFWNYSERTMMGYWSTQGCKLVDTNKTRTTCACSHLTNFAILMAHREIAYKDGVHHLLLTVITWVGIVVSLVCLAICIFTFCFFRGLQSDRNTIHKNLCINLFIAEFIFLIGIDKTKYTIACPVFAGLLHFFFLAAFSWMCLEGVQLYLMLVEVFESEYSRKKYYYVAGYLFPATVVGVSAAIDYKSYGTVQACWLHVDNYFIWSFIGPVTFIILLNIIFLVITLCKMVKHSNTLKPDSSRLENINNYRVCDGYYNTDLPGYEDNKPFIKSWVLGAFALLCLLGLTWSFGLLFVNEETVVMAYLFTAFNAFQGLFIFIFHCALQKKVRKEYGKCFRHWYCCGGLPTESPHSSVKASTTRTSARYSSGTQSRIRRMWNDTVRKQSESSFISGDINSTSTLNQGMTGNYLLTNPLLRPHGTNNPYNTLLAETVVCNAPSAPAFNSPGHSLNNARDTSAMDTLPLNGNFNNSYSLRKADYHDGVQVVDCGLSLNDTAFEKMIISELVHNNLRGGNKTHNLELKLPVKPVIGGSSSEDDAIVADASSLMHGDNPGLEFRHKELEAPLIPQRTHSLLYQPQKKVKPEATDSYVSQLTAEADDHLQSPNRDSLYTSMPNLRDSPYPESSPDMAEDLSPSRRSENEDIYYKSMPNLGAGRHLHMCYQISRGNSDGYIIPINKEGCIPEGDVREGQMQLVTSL


Key:
[1] = molecular target: T1, His-PCLAF expressed in HEK293T cells; test: co-IP; HEK293T cells transfected with Flag-Adgrl2 and His-Pclaf plasmids; lysate immunoprecipitated with anti-His or anti-Flag antibody, protein G Sepharose; blotted with anti-Flag or anti-His (both directions)
[2] = molecular target: T2, FLAG-ADGRL2 expressed in HEK293T cells; test: as above

binding [1]	binding [2]	Binder
binds	–	FLAG-ADGRL2 expressed in HEK293T cells (receptor, UniProt Q8JZZ7 26-1487) FSRAALPFGLVRRELSCEGYSIDLRCPGSDVIMIESANYGRTDDKICDADPFQMENTDCYLPDAFKIMTQRCNNRTQCIVVTGSDVFPDPCPGTYKYLEVQYECVPYSKMLVFVCPGTLKAIVDSPCIYEAEQKSGAWCKDPLQAADKIYFMPWTPYRTDTLIEYASLEDFQNSRQTTTYKLPNRVDGTGFVVYDGAVFFNKERTRNIVKFDLRTRIKSGEAIINYANYHDTSPYRWGGKTDIDLAVDENGLWVIYATEQNNGMIVISQLNPYTLRFEATWETAYDKRAASNAFMICGVLYVVRSVYQDNESEAGKNTIDYIYNTRLSRGEYVDVPFPNQYQYIAAVDYNPRDNQLYVWNNNFILRYSLEFGPPDPAQVPTTAVTITSSAELFKTTISTTSSASQRGPVSSTAAGPQDGSRGTKPPPAVSTTKIPPVTNIFPLPERFCEALDWKGIKWPQTQRGMMVERPCPKGTRGTASYLCMASTGTWNPKGPDLSNCTSHWVNQLAQKIRSGENAASLANELAKHTKGHVFAGDVSSSVRLMEQLVDILDAQLQELKPSEKDSAGRSYNKLQKREKTCRAYLKAIVDTVDNLLRAEALESWKHMNSSEQAHTATMLLDTLEEGAFVLADNLLEPTRVSMPTENIVLEVAVLSTEGQVQDFKFPLGLKGLGSSIQLSANTVKQNSRNGLAKLVFIIYRSLGQFLSTENATIKLGADLMGRNSTIAVNSPVISVSINKESSRVYLTDPVLFTLPHIDPDNYFNANCSFWNYSERTMMGYWSTQGCKLVDTNKTRTTCACSHLTNFAILMAHREIAYKDGVHHLLLTVITWVGIVVSLVCLAICIFTFCFFRGLQSDRNTIHKNLCINLFIAEFIFLIGIDKTKYTIACPVFAGLLHFFFLAAFSWMCLEGVQLYLMLVEVFESEYSRKKYYYVAGYLFPATVVGVSAAIDYKSYGTVQACWLHVDNYFIWSFIGPVTFIILLNIIFLVITLCKMVKHSNTLKPDSSRLENINNYRVCDGYYNTDLPGYEDNKPFIKSWVLGAFALLCLLGLTWSFGLLFVNEETVVMAYLFTAFNAFQGLFIFIFHCALQKKVRKEYGKCFRHWYCCGGLPTESPHSSVKASTTRTSARYSSGTQSRIRRMWNDTVRKQSESSFISGDINSTSTLNQGMTGNYLLTNPLLRPHGTNNPYNTLLAETVVCNAPSAPAFNSPGHSLNNARDTSAMDTLPLNGNFNNSYSLRKADYHDGVQVVDCGLSLNDTAFEKMIISELVHNNLRGGNKTHNLELKLPVKPVIGGSSSEDDAIVADASSLMHGDNPGLEFRHKELEAPLIPQRTHSLLYQPQKKVKPEATDSYVSQLTAEADDHLQSPNRDSLYTSMPNLRDSPYPESSPDMAEDLSPSRRSENEDIYYKSMPNLGAGRHLHMCYQISRGNSDGYIIPINKEGCIPEGDVREGQMQLVTSL
–	binds	His-PCLAF expressed in HEK293T cells (protein, UniProt Q9CQX4 1-110) MVRTKANYVPGAYRKAVASQAPRKVLGSSTFVTNSSSSSRKAENKYAGGNPVCVRPTPKWQKGIGEFFRLSPKESKKENQAPEEAGTSGLGKAKRKACPLQPDHRDDENE
